# Experimental data taken from the supplement of paper PMC8728848.
# The other results are listed elsewhere or left out.
# B1: Wzz (Escherichia coli) (protein)
# chain: MRTWKFPSVRVMMRVENNNVSGQNHDPEQIDLIDLLVQLWRGKMTIIISVIVAIVLAIGYLAVAKEKWTSTAIITQPDVGQIAGYNNAMNVIYGQAAPKVSDLQETLIGRFSSAFSALAETLDNQEEPEKLTIEPSVKNQQLPLTVSYVGQTAEGAQMKLAQYIQQVDDKVNQELEKDLKDNIALGRKNLQDSLRTQEVVAQEQKDLRIRQIQEALQYANQAQVTKPQIQQTGEDITQDTLFLLGSEALESMIKHEATRPLVFSSNYYQTRQNLLDIDNLDVDKLDIHAYLYVMKPTLPIRRDSPKKAITLILAVLLGGMVGAGIVLGRNALRNYNAK
# Key:
# Assay in all cases: glycan array binding signal (z-score within array); higher = stronger binding
# Conditions in all cases: glycan notation: IUPAC condensed, linker removed
# Neu5Ac(a2-8)Neu5Ac = biological target: Neu5Ac(a2-8)Neu5Ac
# Method in brief: (§1)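 From the Consortium for Functional Glycomics database, 3228 arrays were curated, keeping only those whose protein sequence was available. Binding is given as a within-array Z-score averaged across arrays sharing a protein sequence and across linkers. Negative Z-scores can be read as non-binding.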
# [1] = biological target: Neu5Ac(a2-8)Neu5Ac(a2-3)Gal(b1-3)GalNAc(b1-4)[Neu5Ac(a2-3)]Gal(b1-4)Glc
# Method in brief: as §1
# [2] = biological target: Neu5Ac(a2-8)Neu5Ac(a2-3)Gal(b1-3)GalNAc(b1-4)[Neu5Ac(a2-8)Neu5Ac(a2-3)]Gal(b1-4)Glc
# Method in brief: as §1
# [3] = biological target: Neu5Ac(a2-8)Neu5Ac(a2-3)Gal(b1-4)Glc
# Method in brief: as §1
# [4] = biological target: Neu5Ac(a2-8)Neu5Ac(a2-3)Gal(b1-4)GlcNAc
# Method in brief: as §1
# [5] = biological target: Neu5Ac(a2-8)Neu5Ac(a2-3)[Gal(b1-3)GalNAc(b1-4)]Gal(b1-4)Glc
# Method in brief: as §1
# [6] = biological target: Neu5Ac(a2-8)Neu5Ac(a2-3)[GalNAc(b1-4)]Gal(b1-4)Glc
# Method in brief: as §1
# [7] = biological target: Neu5Ac(a2-8)Neu5Ac(a2-8)Neu5Ac
# Method in brief: as §1
# [8] = biological target: Neu5Ac(a2-8)Neu5Ac(a2-8)Neu5Ac(a2-3)Gal(b1-4)Glc
# Method in brief: as §1
# [9] = biological target: Neu5Ac(a2-8)Neu5Ac(a2-8)Neu5Ac(a2-3)[Gal(b1-3)GalNAc(b1-4)]Gal(b1-4)Glc
# Method in brief: as §1
# [10] = biological target: Neu5Ac(a2-8)Neu5Ac(a2-8)Neu5Ac(a2-3)[GalNAc(b1-4)]Gal(b1-4)Glc
# Method in brief: as §1
# [11] = biological target: Neu5Ac(a2-8)Neu5Ac(a2-8)Neu5Ac(a2-8)Neu5Ac(a2-3)[GalNAc(b1-4)]Gal(b1-4)Glc
# Method in brief: as §1
# [12] = biological target: Neu5Ac(a2-8)Neu5Gc(a2-3)Gal(b1-4)GlcNAc
# Method in brief: as §1
# [13] = biological target: Neu5Ac(b2-6)Gal(b1-4)GlcNAc
# Method in brief: as §1
# Neu5Ac(b2-6)GalNAc = biological target: Neu5Ac(b2-6)GalNAc
# Method in brief: as §1
# [14] = biological target: Neu5Ac9Ac(a2-3)Gal(b1-3)GlcNAc
# Method in brief: as §1
# [15] = biological target: Neu5Ac9Ac(a2-3)Gal(b1-4)GlcNAc
# Method in brief: as §1
# [16] = biological target: Neu5Ac9Ac(a2-6)Gal(b1-4)GlcNAc
# Method in brief: as §1
# [17] = biological target: Neu5Gc(a2-3)Gal(b1-3)GlcNAc
# Method in brief: as §1
# [18] = biological target: Neu5Gc(a2-3)Gal(b1-3)[Fuc(a1-4)]GlcNAc
# Method in brief: as §1
# Neu5Gc(a2-3)Gal(b1-4)Glc = biological target: Neu5Gc(a2-3)Gal(b1-4)Glc
# Method in brief: as §1
# [19] = biological target: Neu5Gc(a2-3)Gal(b1-4)GlcNAc
# Method in brief: as §1
# [20] = biological target: Neu5Gc(a2-3)Gal(b1-4)GlcNAc(b1-3)Gal(b1-4)GlcNAc(b1-2)Man(a1-3)[Neu5Gc(a2-3)Gal(b1-4)GlcNAc(b1-3)Gal(b1-4)GlcNAc(b1-2)Man(a1-6)]Man(b1-4)GlcNAc(b1-4)GlcNAc
# Method in brief: as §1
# [21] = biological target: Neu5Gc(a2-3)Gal(b1-4)[Fuc(a1-3)]GlcNAc
# Method in brief: as §1
# [22] = biological target: Neu5Gc(a2-6)Gal(b1-4)GlcNAc
# Method in brief: as §1
# Neu5Gc(a2-6)GalNAc = biological target: Neu5Gc(a2-6)GalNAc
# Method in brief: as §1
# [23] = biological target: Neu5Gc(a2-8)Neu5Ac(a2-3)Gal(b1-4)GlcNAc
# Method in brief: as §1
# [24] = biological target: Neu5Gc(a2-8)Neu5Gc(a2-3)Gal(b1-4)GlcNAc
# Method in brief: as §1
# [25] = biological target: Neu5Gc(a2-8)Neu5Gc(a2-3)Gal(b1-4)GlcNAc(b1-3)Gal(b1-4)GlcNAc
# Method in brief: as §1
# [26] = biological target: Neu5Gc(a2-8)Neu5Gc(a2-6)Gal(b1-4)GlcNAc
# Method in brief: as §1
# [27] = biological target: Neu5Gc(b2-6)Gal(b1-4)GlcNAc
# Method in brief: as §1
binder,measurement,setting,value
B1,glycan array binding signal (z-score),Neu5Ac(a2-8)Neu5Ac,-0.367
same,glycan array binding signal (z-score),[1],0.181
same,glycan array binding signal (z-score),[2],0.123
same,glycan array binding signal (z-score),[3],-1.26
same,glycan array binding signal (z-score),[4],-0.609
same,glycan array binding signal (z-score),[5],0.345
same,glycan array binding signal (z-score),[6],1.61
same,glycan array binding signal (z-score),[7],1.31
same,glycan array binding signal (z-score),[8],0.654
same,glycan array binding signal (z-score),[9],-0.252
same,glycan array binding signal (z-score),[10],1.24
same,glycan array binding signal (z-score),[11],0.336
same,glycan array binding signal (z-score),[12],-0.39
same,glycan array binding signal (z-score),[13],-0.813
same,glycan array binding signal (z-score),Neu5Ac(b2-6)GalNAc,-0.61
same,glycan array binding signal (z-score),[14],-0.549
same,glycan array binding signal (z-score),[15],-0.537
same,glycan array binding signal (z-score),[16],-0.542
same,glycan array binding signal (z-score),[17],-0.205
same,glycan array binding signal (z-score),[18],0.201
same,glycan array binding signal (z-score),Neu5Gc(a2-3)Gal(b1-4)Glc,0.351
same,glycan array binding signal (z-score),[19],-0.21
same,glycan array binding signal (z-score),[20],-0.88
same,glycan array binding signal (z-score),[21],0.113
same,glycan array binding signal (z-score),[22],0.167
same,glycan array binding signal (z-score),Neu5Gc(a2-6)GalNAc,0.139
same,glycan array binding signal (z-score),[23],0.07
same,glycan array binding signal (z-score),[24],-0.883
same,glycan array binding signal (z-score),[25],-0.496
same,glycan array binding signal (z-score),[26],0.212
same,glycan array binding signal (z-score),[27],0.203

# Reformatted with tabs: part of the list above
binder	measurement	setting	value
B1	glycan array binding signal (z-score)	[12]	-0.39
same	glycan array binding signal (z-score)	[13]	-0.813
